Some of these results come from one statement about several compounds together.
Biological target: T1, B-Raf (V599E or Wild Type) (Homo sapiens, UniProt P15056)
T1 construct: Enzymatically active wild-type B-Raf was purchased from Upstate (cat#14-530); Enzymatically active mutant B-Raf(V599E) was purified in house; fused on or other part: None is printed; By knowledge, Upstate 14-530 is an N-terminally GST-tagged truncated human B-Raf; the tag is not part of the key
Experiment: B-Raf Flash Plate Assay
Assay type: biochemical
Conditions: bin: less than or equal to 100 nM

Protein sequences, listed by entry. Tags and fused reporters are not part of them.
UniProt P15056, whole entry, stated change not applied: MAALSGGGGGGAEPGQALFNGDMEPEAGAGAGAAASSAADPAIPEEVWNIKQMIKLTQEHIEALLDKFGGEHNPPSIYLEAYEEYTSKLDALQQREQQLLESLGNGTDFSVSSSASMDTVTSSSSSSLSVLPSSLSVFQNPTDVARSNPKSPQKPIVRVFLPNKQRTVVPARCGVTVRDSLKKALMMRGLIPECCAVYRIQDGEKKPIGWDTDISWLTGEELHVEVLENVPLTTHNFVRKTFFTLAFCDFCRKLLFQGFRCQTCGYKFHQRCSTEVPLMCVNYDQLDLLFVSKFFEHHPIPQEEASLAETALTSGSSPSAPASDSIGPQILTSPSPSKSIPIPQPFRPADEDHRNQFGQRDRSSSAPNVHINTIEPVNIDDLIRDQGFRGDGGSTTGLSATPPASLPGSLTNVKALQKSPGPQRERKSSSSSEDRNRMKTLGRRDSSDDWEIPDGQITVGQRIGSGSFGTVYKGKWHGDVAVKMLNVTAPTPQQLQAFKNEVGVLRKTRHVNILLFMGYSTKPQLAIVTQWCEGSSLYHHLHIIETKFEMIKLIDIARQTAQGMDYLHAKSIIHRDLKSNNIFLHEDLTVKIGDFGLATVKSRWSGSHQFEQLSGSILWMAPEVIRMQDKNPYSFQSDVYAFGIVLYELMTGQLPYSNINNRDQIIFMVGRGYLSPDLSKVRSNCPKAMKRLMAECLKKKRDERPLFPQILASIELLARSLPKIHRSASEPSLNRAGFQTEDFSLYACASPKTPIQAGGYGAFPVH

CSc1ncc(C(=O)N2N=C(c3cccnc3)CC2c2ccccc2O)n1Cc1ccccc1 (stereo not shown) [Compound I-169, 2-(1-{[1-benzyl-2-(methylsulfanyl)-1H-imidazol-5-yl]carbonyl)-3-pyridin-3-yl-4,5-dihydro-1H-pyrazol-5-yl)phenol]
IC50: ≤ 100 nM

O=C(c1csc(-c2ccc3c(c2)CCO3)n1)N1N=C(c2cccnc2)CC1c1ccccc1O (stereo not shown) [Compound I-104, 2-(1-{[2-(2,3-dihydro-1-benzofuran-5-yl)-1,3-thiazol-4-yl]carbonyl}-3-pyridin-3-yl-4,5-dihydro-1H-pyrazol-5-yl)phenol]
IC50: ≤ 100 nM

O=C(c1cc(-c2ccc(Cl)cc2)on1)N1N=C(c2cccnc2)CC1c1ccccc1O (stereo not shown) [Compound I-138, 2-(1-{[5-(4-chlorophenyl)isoxazol-3-yl]carbonyl}-3-pyridin-3-yl-4,5-dihydro-1H-pyrazol-5-yl)phenol]
IC50: ≤ 100 nM

N#Cc1ccc(-c2ccc(C(=O)N3N=C(c4cccnc4)CC3c3ccccc3O)s2)c(F)c1 (stereo not shown) [Compound I-201, 3-fluoro-4-(5-{[5-(2-hydroxyphenyl)-3-pyridin-3-yl-4,5-dihydro-1H-pyrazol-1-yl]carbonyl}-2-thienyl)benzonitrile]
IC50: ≤ 100 nM

O=C(NC1(c2ccccc2)CCCCC1)N1N=C(c2cccnc2)CC1c1ccccc1O (stereo not shown) [Compound I-344, 5-(2-hydroxyphenyl)-N-(1-phenylcyclohexyl)-3-pyridin-3-yl-4,5-dihydro-1H-pyrazole-1-carboxamide]
IC50: ≤ 100 nM

O=C(c1ccc(-c2ccncc2)s1)N1N=C(c2cccnc2)CC1c1ccccc1O (stereo not shown) [Compound I-83, 2-{3-pyridin-3-yl-1-[(5-pyridin-4-yl-2-thienyl)carbonyl]-4,5-dihydro-1H-pyrazol-5-yl}phenol]
IC50: ≤ 100 nM

Cn1c(C(=O)N2N=C(c3cccnc3)CC2c2ccccc2O)ccc1S(=O)(=O)N(Cc1ccccc1)Cc1ccccc1 (stereo not shown) [Compound I-42, N,N-dibenzyl-5-{[5-(2-hydroxyphenyl)-3-pyridin-3-yl-4,5-dihydro-1H-pyrazol-1-yl]carbonyl}-1-methyl-1H-pyrrole-2-sulfonamide]
IC50: ≤ 100 nM

NCc1ccc(-c2ccc(C(=O)N3N=C(c4cccnc4)CC3c3c(O)cccc3F)s2)cc1 (stereo not shown) [Compound I-281, 2[1-({5-[4-(aminomethyl)phenyl]-2-thienyl)carbonyl)-3-pyridin-3-yl-4,5-dihydro-1H-pyrazol-5-yl]-3-flurophenol]
IC50: ≤ 100 nM

O=C(NC1(c2ccccc2)CCCC1)N1N=C(c2cccnc2)CC1c1ccccc1O (stereo not shown) [Compound I-321, 5-(2-hydroxyphenyl)-N-(1-phenylcyclopentyl)-3-pyridin-3-yl-4,5-dihydro-1H-pyrazole-1-carboxamide]
IC50: ≤ 100 nM

Nc1c(C(=O)N2N=C(c3cccnc3)CC2c2ccccc2O)cnn1-c1ccccc1 (stereo not shown) [Compound I-101, 2-{1-[(5-amino-1-phenyl-1H-pyrazol-4-yl)carbonyl]-3-pyridin-3-yl-4,5-dihydro-1H-pyrazol-5-yl}phenol]
IC50: ≤ 100 nM

O=C(Nc1cc(F)ccc1-n1ccnc1)N1N=C(c2cccnc2)CC1c1ccccc1O (stereo not shown) [Compound I-317, N-[5-fluoro-2-(1H-imidazol-1-yl)phenyl]-5-(2-hydroxyphenyl)-3-pyridin-3-yl-4,5-dihydro-1H-pyrazole-1-carboxamide]
IC50: ≤ 100 nM

O=C(c1ccc(-c2cccc(CNCCO)c2)s1)N1N=C(c2cccnc2)CC1c1c(O)cccc1F (stereo not shown) [Compound I-308, 3-fluoro-2-(1-{[5-(3-{[(2-hydroxyethyl)amino]methyl}phenyl)-2-thienyl]carbonyl}-3-pyridin-3-yl-4,5-dihydro-1H-pyrazol-5-yl)phenol]
IC50: ≤ 100 nM

O=C(c1ccc(-c2ccccn2)s1)N1N=C(c2cccnc2)CC1c1cc(F)ccc1O (stereo not shown) [Compound I-163, 4-fluoro-2-{3-pyridin-3-yl-1-[(5-pyridin-2-yl-2-thienyl)carbonyl]-4,5-dihydro-1H-pyrazol-5-yl}phenol]
IC50: ≤ 100 nM

O=C(c1cc(-c2ccc(Br)cc2)on1)N1N=C(c2cccnc2)CC1c1ccccc1O (stereo not shown) [Compound I-268, 2-(1-{[5-(4-bromophenyl)isoxazol-3-yl]carbonyl}-3-pyridin-3-yl-4,5-dihydro-1H-pyrazol-5-yl)phenol]
IC50: ≤ 100 nM

Nc1cncc(C2=NN(C(=O)c3ccc(-c4ccccn4)s3)C(c3ccccc3O)C2)c1 (stereo not shown) [Compound I-296, 2-{3-(5-aminopyridin-3-yl)-1-[(5-pyridin-2-yl-2-thienyl)carbonyl]-4,5-dihydro-1H-pyrazol-5-yl}phenol]
IC50: ≤ 100 nM

O=C(c1ccc(-c2ccc3c(c2)CNCC3)s1)N1N=C(c2cccnc2)CC1c1c(O)cccc1F (stereo not shown) [Compound I-389, 3-fluoro-2-(3-pyridin-3-yl-1-{[5-(1,2,3,4-tetrahydroisoquinolin-7-yl)-2-thienyl]carbonyl}-4,5-dihydro-1H-pyrazol-5-yl)phenol]
IC50: ≤ 100 nM

Cc1ccc(Oc2ncccc2NC(=O)N2N=C(c3cccnc3)CC2c2ccccc2O)c2c1CCC2 (stereo not shown) [Compound I-271, 5-(2-hydroxyphenyl)-N-{2-[(7-methyl-2,3-dihydro-1H-inden-4-yl)oxy]pyridin-3-yl}-3-pyridin-3-yl-4,5-dihydro-1H-pyrazole-1-carboxamide]
IC50: ≤ 100 nM

O=C(c1ccc(Cn2cccn2)o1)N1N=C(c2cccnc2)CC1c1ccccc1O (stereo not shown) [Compound I-127, 2-{1-[5-(1H-pyrazol-1-ylmethyl)-2-furoyl]-3-pyridin-3-yl-4,5-dihydro-1H-pyrazol-5-yl}phenol]
IC50: ≤ 100 nM

Cc1ccccc1-c1ccc(C(=O)N2N=C(c3cccnc3)CC2c2ccccc2O)s1 (stereo not shown) [Compound I-53, 2-(1-{[5-(2-methylphenyl)-2-thienyl]carbonyl}-3-pyridin-3-yl-4,5-dihydro-1H-pyrazol-5-yl)phenol]
IC50: ≤ 100 nM

O=C(c1ccc(-c2cnn(CCN3CCOCC3)c2)s1)N1N=C(c2cccnc2)CC1c1ccccc1O (stereo not shown) [Compound I-33, 2-[1-({5-[1-(2-morpholin-4-ylethyl)-1H-pyrazol-4-yl]-2-thienyl}carbonyl)-3-pyridin-3-yl-4,5-dihydro-1H-pyrazol-5-yl]phenol]
IC50: ≤ 100 nM

N#Cc1ccccc1-c1ccc(C(=O)N2N=C(c3cccnc3)CC2c2ccccc2O)s1 (stereo not shown) [Compound I-164, 2-(5-{[5-(2-hydroxyphenyl)-3-pyridin-3-yl-4,5-dihydro-1H-pyrazol-1-y1]carbonyl}-2-thienyl)benzonitrile]
IC50: ≤ 100 nM

Cc1cccc(-c2ccc(C(=O)N3N=C(c4cccnc4)CC3c3ccccc3O)s2)c1 (stereo not shown) [Compound I-7, 2-(1-{[5-(3-methylphenyl)-2-thienyl]carbonyl}-3-pyridin-3-yl-4,5-dihydro-1H-pyrazol-5-yl)phenol]
IC50: ≤ 100 nM

COc1ccc(-c2nnsc2NC(=O)N2N=C(c3cccnc3)CC2c2ccccc2O)cc1 (stereo not shown) [Compound I-368, 5-(2-hydroxyphenyl)-N-[4-(4-methoxyphenyl)-1,2,3-thiadiazol-5-yl]-3-pyridin-3-yl-4,5-dihydro-1H-pyrazole-1-carboxamide]
IC50: ≤ 100 nM

O=C(c1csc(-c2ccccn2)n1)N1N=C(c2cccnc2)CC1c1c(O)cccc1F (stereo not shown) [Compound I-290, 3-fluoro-2-{3-pyridin-3-yl-1-[(2-pyridin-2-yl-1,3-thiazol-4-yl)carbonyl]-4,5-dihydro-1H-pyrazol-5-yl}phenol]
IC50: ≤ 100 nM

O=C(Nc1ccccc1Oc1ccccc1)N1N=C(c2cccnc2)CC1c1ccccc1O (stereo not shown) [Compound I-85, 5-(2-hydroxyphenyl)-N-(2-phenoxyphenyl)-3-pyridin-3-yl-4,5-dihydro-1H-pyrazole-1-carboxamide]
IC50: ≤ 100 nM

NCc1cc(Cl)ccc1-c1ccc(C(=O)N2N=C(c3cccnc3)CC2c2ccccc2O)s1 (stereo not shown) [Compound I-356, 2-[1-({5-[2-(aminomethyl)-4-chlorophenyl]-2-thienyl}carbonyl)-3-pyridin-3-yl-4,5-dihydro-1H-pyrazol-5-yl]phenol]
IC50: ≤ 100 nM

O=C(c1cccc(-n2cnnn2)c1)N1N=C(c2cccnc2)CC1c1ccccc1O (stereo not shown) [Compound I-68, 2-{3-pyridin-3-yl-1-[3-(1H-tetrazol-1-yl)benzoyl]-4,5-dihydro-1H-pyrazol-5-yl}phenol]
IC50: ≤ 100 nM

O=C(c1cnn(-c2ccccc2)c1)N1N=C(c2cccnc2)CC1c1c(O)cccc1F (stereo not shown) [Compound I-279, 3-fluoro-2-{1-[(1-phenyl-1H-pyrazo1-4-yl)carbonyl]-3-pyridin-3-yl-4,5-dihydro-1H-pyrazol-5-yl}phenol]
IC50: ≤ 100 nM

Nc1cncc(C2=NN(C(=O)c3ccc(-c4ccccn4)s3)C(c3c(O)cccc3F)C2)c1 (stereo not shown) [Compound I-369, 2-{3-(5-aminopyridin-3-yl)-1-[(5-pyridin-2-yl-2-thienyl)carbonyl]-4,5-dihydro-1H-pyrazol-5-yl}-3-fluorophenol]
IC50: ≤ 100 nM

Cc1nnc(NS(=O)(=O)c2ccc(NC(=O)N3N=C(c4cccnc4)CC3c3ccccc3O)cc2)s1 (stereo not shown) [Compound I-243, 5-(2-hydroxyphenyl)-N-(4-{[(5-methyl-1,3,4-thiadiazol-2-yl)amino]sulfonyl}phenyl)-3-pyridin-3-yl-4,5-dihydro-1H-pyrazole-1-carboxamide]
IC50: ≤ 100 nM

O=C(c1ccc(-c2ccccc2)o1)N1N=C(c2cccnc2)CC1c1ccccc1O (stereo not shown) [Compound I-64, 2-[-(5-phenyl-2-furoyl)-3-pyridin-3-yl-4,5-dihydro-1H-pyrazol-5-yl]phenol]
IC50: ≤ 100 nM

O=C(c1csc(-c2ccncc2)n1)N1N=C(c2cccnc2)CC1c1ccccc1O (stereo not shown) [Compound I-65, 2-{3-pyridin-3-yl-1-[(2-pyridin-4-yl-1,3-thiazol-4-yl)carbonyl]-4,5-dihydro-1H-pyrazol-5-yl)phenol]
IC50: ≤ 100 nM

Cc1cc(C(=O)N2N=C(c3cccnc3)CC2c2ccccc2O)c(C)n1Cc1ccncc1 (stereo not shown) [Compound I-36, 2-(1-{[2,5-dimethyl-1-(pyridin-4-ylmethyl)-1H-pyrrol-3-yl]carbonyl}-3-pyridin-3-yl-4,5-dihydro-1H-pyrazol-5-yl)phenol]
IC50: ≤ 100 nM

O=C(Nc1cscc1S(=O)(=O)c1ccccc1)N1N=C(c2cccnc2)CC1c1ccccc1O (stereo not shown) [Compound I-316, 5-(2-hydroxyphenyl)-N-[4-(phenylsulfonyl)-3-thienyl]-3-pyridin-3-yl-4,5-dihydro-1H-pyrazole-1-carboxamide]
IC50: ≤ 100 nM
